# No constants are given. Whether binding was seen depends on the method and setting. Binding seen in cells or lysates may run through a third protein. A yes stands for co-enrichment or nearness to the bait. Other partners may have been found. Sequences can lack the tags named with a protein.
# Sequences of proteins named here, by UniProt entry; tags and fusion partners are left off.
# UniProt P50750: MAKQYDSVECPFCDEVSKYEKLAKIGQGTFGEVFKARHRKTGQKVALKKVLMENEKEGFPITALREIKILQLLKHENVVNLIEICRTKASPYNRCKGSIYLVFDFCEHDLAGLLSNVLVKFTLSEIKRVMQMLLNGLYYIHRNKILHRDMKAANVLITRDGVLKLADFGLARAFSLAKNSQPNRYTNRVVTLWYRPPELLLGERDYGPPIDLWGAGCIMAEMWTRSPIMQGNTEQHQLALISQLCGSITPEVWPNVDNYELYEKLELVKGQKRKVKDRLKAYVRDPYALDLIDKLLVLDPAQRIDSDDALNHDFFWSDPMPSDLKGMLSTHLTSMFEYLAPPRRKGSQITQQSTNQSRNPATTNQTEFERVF
# UniProt O94992: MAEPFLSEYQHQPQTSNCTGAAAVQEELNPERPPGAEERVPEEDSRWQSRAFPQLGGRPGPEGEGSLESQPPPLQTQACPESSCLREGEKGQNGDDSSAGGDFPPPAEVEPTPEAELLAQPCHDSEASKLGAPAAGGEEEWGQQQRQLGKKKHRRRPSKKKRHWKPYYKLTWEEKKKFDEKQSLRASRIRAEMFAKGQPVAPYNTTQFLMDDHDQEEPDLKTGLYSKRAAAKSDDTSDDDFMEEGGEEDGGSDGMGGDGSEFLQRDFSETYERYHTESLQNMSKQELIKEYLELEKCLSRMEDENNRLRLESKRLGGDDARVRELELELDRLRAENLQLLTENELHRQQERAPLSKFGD
# UniProt Q13263: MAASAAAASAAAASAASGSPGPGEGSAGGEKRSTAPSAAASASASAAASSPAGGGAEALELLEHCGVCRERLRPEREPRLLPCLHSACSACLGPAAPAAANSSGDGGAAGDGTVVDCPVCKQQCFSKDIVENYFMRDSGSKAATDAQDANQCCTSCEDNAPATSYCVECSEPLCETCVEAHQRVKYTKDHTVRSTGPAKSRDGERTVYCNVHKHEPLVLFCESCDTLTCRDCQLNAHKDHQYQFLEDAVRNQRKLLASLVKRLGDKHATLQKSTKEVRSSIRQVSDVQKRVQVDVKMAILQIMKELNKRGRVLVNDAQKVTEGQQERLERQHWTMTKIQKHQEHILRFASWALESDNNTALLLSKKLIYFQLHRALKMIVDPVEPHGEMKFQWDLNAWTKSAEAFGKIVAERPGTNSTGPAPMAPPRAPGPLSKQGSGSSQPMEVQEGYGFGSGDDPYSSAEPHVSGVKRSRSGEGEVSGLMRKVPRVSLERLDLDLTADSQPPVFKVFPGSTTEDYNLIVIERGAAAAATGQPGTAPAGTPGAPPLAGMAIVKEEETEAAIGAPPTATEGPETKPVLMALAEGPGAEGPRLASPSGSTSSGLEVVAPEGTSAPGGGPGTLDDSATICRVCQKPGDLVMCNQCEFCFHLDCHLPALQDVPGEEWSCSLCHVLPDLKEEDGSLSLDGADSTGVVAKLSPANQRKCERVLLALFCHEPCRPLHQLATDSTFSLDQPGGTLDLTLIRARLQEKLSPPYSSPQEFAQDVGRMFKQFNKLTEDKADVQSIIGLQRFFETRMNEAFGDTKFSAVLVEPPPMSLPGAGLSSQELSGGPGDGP
# B1: AFF4 (protein, UniProt Q9UHB7 1-1163)
# chain: MNREDRNVLRMKERERRNQEIQQGEDAFPPSSPLFAEPYKVTSKEDKLSSRIQSMLGNYDEMKDFIGDRSIPKLVAIPKPTVPPSADEKSNPNFFEQRHGGSHQSSKWTPVGPAPSTSQSQKRSSGLQSGHSSQRTSAGSSSGTNSSGQRHDRESYNNSGSSSRKKGQHGSEHSKSRSSSPGKPQAVSSLNSSHSRSHGNDHHSKEHQRSKSPRDPDANWDSPSRVPFSSGQHSTQSFPPSLMSKSNSMLQKPTAYVRPMDGQESMEPKLSSEHYSSQSHGNSMTELKPSSKAHLTKLKIPSQPLDASASGDVSCVDEILKEMTHSWPPPLTAIHTPCKTEPSKFPFPTKESQQSNFGTGEQKRYNPSKTSNGHQSKSMLKDDLKLSSSEDSDGEQDCDKTMPRSTPGSNSEPSHHNSEGADNSRDDSSSHSGSESSSGSDSESESSSSDSEANEPSQSASPEPEPPPTNKWQLDNWLNKVNPHKVSPASSVDSNIPSSQGYKKEGREQGTGNSYTDTSGPKETSSATPGRDSKTIQKGSESGRGRQKSPAQSDSTTQRRTVGKKQPKKAEKAAAEEPRGGLKIESETPVDLASSMPSSRHKAATKGSRKPNIKKESKSSPRPTAEKKKYKSTSKSSQKSREIIETDTSSSDSDESESLPPSSQTPKYPESNRTPVKPSSVEEEDSFFRQRMFSPMEEKELLSPLSEPDDRYPLIVKIDLNLLTRIPGKPYKETEPPKGEKKNVPEKHTREAQKQASEKVSNKGKRKHKNEDDNRASESKKPKTEDKNSAGHKPSSNRESSKQSAAKEKDLLPSPAGPVPSKDPKTEHGSRKRTISQSSSLKSSSNSNKETSGSSKNSSSTSKQKKTEGKTSSSSKEVKEKAPSSSSNCPPSAPTLDSSKPRRTKLVFDDRNYSADHYLQEAKKLKHNADALSDRFEKAVYYLDAVVSFIECGNALEKNAQESKSPFPMYSETVDLIKYTMKLKNYLAPDATAADKRLTVLCLRCESLLYLRLFKLKKENALKYSKTLTEHLKNSYNNSQAPSPGLGSKAVGMPSPVSPKLSPGNSGNYSSGASSASASGSSVTIPQKIHQMAASYVQVTSNFLYATEIWDQAEQLSKEQKEFFAELDKVMGPLIFNASIMTDLVRYTRQGLHWLRQDAKLIS
# B2: LARP7 (protein, UniProt Q4G0J3 1-582)
# chain: METESGNQEKVMEEESTEKKKEVEKKKRSRVKQVLADIAKQVDFWFGDANLHKDRFLREQIEKSRDGYVDISLLVSFNKMKKLTTDGKLIARALRSSAVVELDLEGTRIRRKKPLGERPKDEDERTVYVELLPKNVNHSWIERVFGKCGNVVYISIPHYKSTGDPKGFAFVEFETKEQAAKAIEFLNNPPEEAPRKPGIFPKTVKNKPIPALRVVEEKKKKKKKKGRMKKEDNIQAKEENMDTSNTSISKMKRSRPTSEGSDIESTEPQKQCSKKKKKRDRVEASSLPEVRTGKRKRSSSEDAESLAPRSKVKKIIQKDIIKEASEASKENRDIEISTEEEKDTGDLKDSSLLKTKRKHKKKHKERHKMGEEVIPLRVLSKSEWMDLKKEYLALQKASMASLKKTISQIKSESEMETDSGVPQNTGMKNEKTANREECRTQEKVNATGPQFVSGVIVKIISTEPLPGRKQVRDTLAAISEVLYVDLLEGDTECHARFKTPEDAQAVINAYTEINKKHCWKLEILSGDHEQRYWQKILVDRQAKLNQPREKKRGTEKLITKAEKIRLAKTQQASKHIRFSEYD
# Biological target: T1, FLAG-HRV-tagged RBM22 (human) (UniProt Q9NW64)
# T1 sequence: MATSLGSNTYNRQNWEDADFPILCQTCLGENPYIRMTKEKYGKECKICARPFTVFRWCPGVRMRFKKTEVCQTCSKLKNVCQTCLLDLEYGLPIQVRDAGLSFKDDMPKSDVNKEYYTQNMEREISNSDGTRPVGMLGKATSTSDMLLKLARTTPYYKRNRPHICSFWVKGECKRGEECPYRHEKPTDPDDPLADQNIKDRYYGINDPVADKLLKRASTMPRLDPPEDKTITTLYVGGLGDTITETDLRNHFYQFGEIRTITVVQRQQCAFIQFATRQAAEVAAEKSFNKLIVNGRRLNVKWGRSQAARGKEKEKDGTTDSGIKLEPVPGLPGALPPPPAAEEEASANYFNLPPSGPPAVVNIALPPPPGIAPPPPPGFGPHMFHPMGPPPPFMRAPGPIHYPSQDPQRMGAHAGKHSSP
# Assay: affinity purification with mass spectrometry; FLAG immunoprecipitation (ANTI-FLAG M2 Affinity Gel, overnight, 4°C) from benzonase-treated lysate of HepG2 cells induced with Dox to express FLAG-RBM22; eluted with HRV 3C protease; label-free quantitative mass spectrometry against cells without Dox
row,Molecule,binding
1,CDK9 (from UniProt P50750 1-372) (enzyme),binds
2,HEXIM1 (from UniProt O94992 1-359),binds
3,TRIM28 (from UniProt Q13263 1-835),binds
4,B1,binds
5,B2,binds
